Assay results published in PubChem BioAssay AID540317 (National Center for Advancing Translational Sciences (NCATS), 2011).
What follows is the remainder of the data, with few or none of the hits. Inconclusive results are not listed. Active and inactive are the calls of the source. Calls come from the whole dose curve; as a rule, active = well fitted inhibition curve with a large enough effect; inconclusive = small, poorly fitted or top-dose-only effect; inactive = no such curve, though single readings can be large or run the other way.

Chains of the proteins cited; added tags and fusions are not shown.
UniProt P83916, whole entry, looked up: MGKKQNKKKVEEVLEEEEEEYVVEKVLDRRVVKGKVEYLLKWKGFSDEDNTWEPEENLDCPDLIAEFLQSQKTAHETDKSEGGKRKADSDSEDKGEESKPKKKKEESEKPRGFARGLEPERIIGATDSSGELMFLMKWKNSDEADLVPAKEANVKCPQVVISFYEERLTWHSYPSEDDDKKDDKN

Molecular target: Chromobox protein homolog 1 (Homo sapiens) (UniProt P83916)
Test: HTS for Inhibitors of HP1-beta Chromodomain Interactions with Methylated Histone Tails; note: nearly all actives have a fitted effect of over 70% in size
Conditions: AlphaScreen HP1-beta / biotin-H3K9me3 peptide binding; at 114 µM (top of the series)
Excerpt: As our understanding of epigenetics expands, it is becoming clear that players in this field are potential targets for drug development. This area of epigenetic therapy has established applications for the treatment of cancer and neurological diseases. We have been involved in this field for a number of years and have performed high-throughput screens to identify the first small molecule inhibitors of protein methyltransferases. These methyltransferases target multiple substrates, and thus regulate many arms of an epigenetic pathway. The methylation of different substrates often generates docking sites for effector proteins that harbor binding domains (chromo, tudor, PHD, MBT and ANK repeats). It has been proposed that the binding sites generated for different proteins by these post-translational modifcations mediate downstream effects on chromatin. Consistent with this theory, di- and tri-methylation of histone H3K9 facilitates the binding of heterochromatin protein HP1. The HP1 protein harbors a chromodomain that is responsible for the methyl-dependent interaction between HP1 and lysine 9 of histone H3. HP1 was first described in flies as a heterochromatin associated protein that can regulate gene silencing. It harbors a chromodomain that binds H3K9me3. In addition, it harbors a chromoshadow domain that interacts with a large number of proteins that are involved in heterochromatin formation and gene repression. There are three highly related HP1 isoforms. All three variants are associated with pericentric heterochromatin and it is not clear whether they have specific or redundant functions. MPP8 is also involved in the repression of gene in euchromatic regions (unpublished data) and like HP1 its chromodomain binds H3K9me3. […] Low-affinity protein-protein interactions (Kd in the single- to double-digit micromolar range) such as those discussed here have been very difficult to assay by traditional techniques such as fluorescence polarization or fluorescence resonance energy transfer. […]

Activity change, negative = inhibition, inactive:
CS(=O)(=O)Nc1cccc2[nH]ncc12 42.5%, O=c1ccc2ccc(OCc3ccccc3)cc2o1 40.5%, Cc1cc(=O)oc2cc(OCc3ccccc3)ccc12 114%
